The whole screen tested about 410,000 compounds, of which about 18,000 (4.4%) were called active. Inconclusive means that the source gave no clear call. Such entries were picked first, then a sample of the others. Cut-off read from the data, not from the text of the source: active = activity change below about -60%; inconclusive = no clear call, values can overlap the other calls; inactive = above about -39%.
test: qHTS Assay for inhibitors of the human cytomegalovirus (HCMV); settings: HFF cells, HCMV-luciferase reporter, 72 h; at 57.5 µM; active compounds read low
In short: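 After 16 h attachment at 37C, HFF cells received test compound and HCMV-luciferase (1 PFU/cell); reporter luminescence read 72 h later, data normalized against buffer-only and known inhibitor Salinomycin.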
% is set by controls: 0 for no effect and ±100 for the full control effect.

Structure (SMILES) | activity change, negative = inhibition
CN1CCN(CCNC(=O)Nc2ccccc2C(F)(F)F)CC1 | inactive: 37.5%
S=C(NCCc1ccccn1)Nc1ccccc1 | inconclusive: -50.9%
Cc1ccccc1NC(=O)COC(=O)c1c[nH]c(=O)[nH]c1=O | inconclusive: -40.5%
CCNc1ccc(C(=O)OCC)cc1NC(=O)c1cccc(N(C)C)c1 | inconclusive: -41%
CCC(c1nnnn1-c1ccc2c(c1)OCCO2)N1CCN(c2ncccc2C(F)(F)F)CC1 (configuration not stated) | inconclusive: -40.7%
CC(C)OC(=O)c1cccc(C(=O)Oc2ccccc2)n1 | inconclusive: -44.8%
Cc1nc2ccn(Cc3cccs3)c(=O)c2cc1C(=O)NCc1ccc(Br)cc1 | active: -62.6%
CCCCn1c(N)c(N(CCOC)C(=O)c2ccc(-n3c(C)ccc3C)cc2)c(=O)[nH]c1=O | inconclusive: -42.8%
Cn1c(CCN2CCN(c3ccccn3)CC2)nc2cc(NS(=O)(=O)c3ccc(F)cc3)ccc21 | active: -85.1%
COc1ccc(-c2sc3cc(OC)c(OC)cc3c2-c2ccc(O)cc2)cc1 | inactive: 3.8%
O=C(Nc1cccc(S(=O)(=O)N2CCCCC2)c1)C1CC1 | inactive: -17.6%
O=C1N(c2ccccc2C(F)(F)F)O[C@]1(c1ccccc1)C1CCCCC1 | inactive: 7.3%
CN(CC(O)COC(c1ccccc1)c1ccccc1)C1CCCCC1 (configuration not stated) | inconclusive: -45.3%
CC1(C)CC(=O)C(C=Nc2ccc(N)cc2)=C(O)C1 | inactive: 22.9%
CCOC(=O)/C=C/C(=O)OCC(=O)Nc1ccc(OC)c(Cl)c1 | inactive: 23.4%
COc1ccc(N(Cc2ccccc2)C(=O)c2nc(S(C)(=O)=O)ncc2Cl)cc1 | active: -101%
O=C(O)c1ccccc1C(=O)NC1CCN(c2nccc(C(F)(F)F)n2)CC1 | inconclusive: -40.3%
O=[N+]([O-])c1ccc(S(=O)(=O)Nc2nc(-c3ccccc3)cs2)cc1 | inactive: 2.01%
CN(C)C(=O)CCc1ccc2c3c([nH]c2c1)[C@]1(CCC2CCCC2)[C@@H](C(=O)N2CCOCC2)C[C@H](CC(=O)NCc2cccc(C(F)(F)F)c2)C(=O)N1CC3 | inconclusive: -40.7%
O=C(NN=C1CCCCCCCCCCC1)c1cccnc1 | inconclusive: -42.2%
COc1ccc(C2CC(=O)c3c([nH]c(C(=O)OCc4ccccc4)c3C)C2)cc1 (configuration not stated) | inconclusive: -59.4%

Quoted from the listing:
CC1(C)CC(=O)C(C=Nc2ccc(N)cc2)=C(O)C1 – activity change, negative = inhibition: inactive: 22.9%
CCCCn1c(N)c(N(CCOC)C(=O)c2ccc(-n3c(C)ccc3C)cc2)c(=O)[nH]c1=O – activity change, negative = inhibition: inconclusive: -42.8%

Additional results follow.

Structure (SMILES) | activity change, negative = inhibition
COc1cccc(/C=C/c2onc(C)c2S(=O)(=O)N2CCC(C(=O)N3CCCCC3)CC2)c1 | inconclusive: 0%
O=C(Nc1ccc(Oc2ccccc2)nc1)C1CCCCN1Cc1cccc(O)c1 (configuration not stated) | inactive: 11%
O=C(CCN1CCN(c2ccccc2)CC1)c1ccc(Cl)cc1 | inconclusive: -48.2%
Cn1c(SCC(=O)N2CCN(c3ccccc3)CC2)nnc1-c1cc2ccccc2o1 | active: -65.9%
O=C(COC(=O)CCc1ccccc1)Nc1ccc(F)cc1Cl | inactive: 11.4%
O=C(NCC(=O)N1CCN(Cc2c(F)cccc2Cl)CC1)c1cccc(Cl)c1 | inactive: -20.6%
COc1ccc(NC(=O)CCCSc2ccccc2)cc1 | inactive: -27.5%
Cc1cc(NS(=O)(=O)c2ccc(N)cc2)nc(C)n1 | inactive: 2.16%
COc1ccc(-c2noc(CCCC(=O)Nc3cccc(Cl)c3C)n2)cc1 | active: -76.7%
Cc1cc(N2CCN(C)CC2)ccc1NC(=O)c1ccc(-c2ccc(Cl)cc2)o1 | inconclusive: -43.1%
Cc1ccc(N2CCn3c2nc2c3c(=O)n(C/C=C/c3ccccc3)c(=O)n2C)cc1C | inactive: 5.87%
CCN1/C(=C(\O)c2ccccc2)C(=O)c2ccccc2S1(=O)=O | active: -87.6%
COC1CCCN(Cc2c(C(=O)N3CCN(C4CCCCC4)CC3)nc3ccccn23)C1 (configuration not stated) | inactive: 19.1%
CSc1ccc(Oc2cccc3c2S(=O)(=O)N([C@H](C)c2ccccc2)C[C@@H](COCc2ccccc2)O3)cc1C | inconclusive: -58.6%
Cc1ccn2c(NC3CCCCC3)c(-c3ccc(SC4CCCCC4)cc3)nc2c1 | inconclusive: -47.8%
O=C(CCl)N(c1ccc(Cl)cc1)c1c[nH]c2ccccc12 | active: -105%
O=C(Nc1ccc(Cc2ccncc2)cc1)C1CCC(N2C(=O)C3CC=CCC3C2=O)CC1 (configuration not stated) | inconclusive: -49.9%
CCOC(=O)C1=NNC(C(=O)c2ccccc2)C1c1ccc(OC)cc1 (configuration not stated) | inconclusive: -43%
COc1ccccc1-c1c(C#N)c(N)nc2c1CCC2 | inconclusive: -58.1%
CC(C)CNC(=O)c1cccc2c(-c3cccnc3)coc12 | inconclusive: -42.8%
COc1cc(NC(=O)CN2C(=O)c3ccccc3Sc3ccc(C(=O)N4CCOCC4)cc32)cc(OC)c1OC | inactive: 14.5%

— PubChem BioAssay AID1259415 (National Center for Advancing Translational Sciences (NCATS), 2018)
